# The supplement of paper PMC12819154, “High-throughput peptide-centric local stability assay extends protein–ligand identification to membrane proteins, tissues and bacteria” (Nature Structural & Molecular Biology, 2025)
# By UniProt entry, the sequences of proteins in these tests, tags left out. Where a name states a change or a piece, a line headed by the entry shows the natural chain unless it says otherwise.
# UniProt P00966: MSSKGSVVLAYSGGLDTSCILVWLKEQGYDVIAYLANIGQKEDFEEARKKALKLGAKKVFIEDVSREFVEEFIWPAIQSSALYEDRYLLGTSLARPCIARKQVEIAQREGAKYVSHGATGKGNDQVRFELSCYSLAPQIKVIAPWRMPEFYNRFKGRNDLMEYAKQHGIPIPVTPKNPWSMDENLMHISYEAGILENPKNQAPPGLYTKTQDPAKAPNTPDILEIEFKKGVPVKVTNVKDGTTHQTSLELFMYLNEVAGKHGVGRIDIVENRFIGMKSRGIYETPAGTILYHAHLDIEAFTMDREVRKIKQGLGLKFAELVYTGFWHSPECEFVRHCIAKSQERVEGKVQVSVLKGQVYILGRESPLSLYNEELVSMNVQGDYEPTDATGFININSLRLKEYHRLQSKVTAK
# UniProt P11532, whole entry: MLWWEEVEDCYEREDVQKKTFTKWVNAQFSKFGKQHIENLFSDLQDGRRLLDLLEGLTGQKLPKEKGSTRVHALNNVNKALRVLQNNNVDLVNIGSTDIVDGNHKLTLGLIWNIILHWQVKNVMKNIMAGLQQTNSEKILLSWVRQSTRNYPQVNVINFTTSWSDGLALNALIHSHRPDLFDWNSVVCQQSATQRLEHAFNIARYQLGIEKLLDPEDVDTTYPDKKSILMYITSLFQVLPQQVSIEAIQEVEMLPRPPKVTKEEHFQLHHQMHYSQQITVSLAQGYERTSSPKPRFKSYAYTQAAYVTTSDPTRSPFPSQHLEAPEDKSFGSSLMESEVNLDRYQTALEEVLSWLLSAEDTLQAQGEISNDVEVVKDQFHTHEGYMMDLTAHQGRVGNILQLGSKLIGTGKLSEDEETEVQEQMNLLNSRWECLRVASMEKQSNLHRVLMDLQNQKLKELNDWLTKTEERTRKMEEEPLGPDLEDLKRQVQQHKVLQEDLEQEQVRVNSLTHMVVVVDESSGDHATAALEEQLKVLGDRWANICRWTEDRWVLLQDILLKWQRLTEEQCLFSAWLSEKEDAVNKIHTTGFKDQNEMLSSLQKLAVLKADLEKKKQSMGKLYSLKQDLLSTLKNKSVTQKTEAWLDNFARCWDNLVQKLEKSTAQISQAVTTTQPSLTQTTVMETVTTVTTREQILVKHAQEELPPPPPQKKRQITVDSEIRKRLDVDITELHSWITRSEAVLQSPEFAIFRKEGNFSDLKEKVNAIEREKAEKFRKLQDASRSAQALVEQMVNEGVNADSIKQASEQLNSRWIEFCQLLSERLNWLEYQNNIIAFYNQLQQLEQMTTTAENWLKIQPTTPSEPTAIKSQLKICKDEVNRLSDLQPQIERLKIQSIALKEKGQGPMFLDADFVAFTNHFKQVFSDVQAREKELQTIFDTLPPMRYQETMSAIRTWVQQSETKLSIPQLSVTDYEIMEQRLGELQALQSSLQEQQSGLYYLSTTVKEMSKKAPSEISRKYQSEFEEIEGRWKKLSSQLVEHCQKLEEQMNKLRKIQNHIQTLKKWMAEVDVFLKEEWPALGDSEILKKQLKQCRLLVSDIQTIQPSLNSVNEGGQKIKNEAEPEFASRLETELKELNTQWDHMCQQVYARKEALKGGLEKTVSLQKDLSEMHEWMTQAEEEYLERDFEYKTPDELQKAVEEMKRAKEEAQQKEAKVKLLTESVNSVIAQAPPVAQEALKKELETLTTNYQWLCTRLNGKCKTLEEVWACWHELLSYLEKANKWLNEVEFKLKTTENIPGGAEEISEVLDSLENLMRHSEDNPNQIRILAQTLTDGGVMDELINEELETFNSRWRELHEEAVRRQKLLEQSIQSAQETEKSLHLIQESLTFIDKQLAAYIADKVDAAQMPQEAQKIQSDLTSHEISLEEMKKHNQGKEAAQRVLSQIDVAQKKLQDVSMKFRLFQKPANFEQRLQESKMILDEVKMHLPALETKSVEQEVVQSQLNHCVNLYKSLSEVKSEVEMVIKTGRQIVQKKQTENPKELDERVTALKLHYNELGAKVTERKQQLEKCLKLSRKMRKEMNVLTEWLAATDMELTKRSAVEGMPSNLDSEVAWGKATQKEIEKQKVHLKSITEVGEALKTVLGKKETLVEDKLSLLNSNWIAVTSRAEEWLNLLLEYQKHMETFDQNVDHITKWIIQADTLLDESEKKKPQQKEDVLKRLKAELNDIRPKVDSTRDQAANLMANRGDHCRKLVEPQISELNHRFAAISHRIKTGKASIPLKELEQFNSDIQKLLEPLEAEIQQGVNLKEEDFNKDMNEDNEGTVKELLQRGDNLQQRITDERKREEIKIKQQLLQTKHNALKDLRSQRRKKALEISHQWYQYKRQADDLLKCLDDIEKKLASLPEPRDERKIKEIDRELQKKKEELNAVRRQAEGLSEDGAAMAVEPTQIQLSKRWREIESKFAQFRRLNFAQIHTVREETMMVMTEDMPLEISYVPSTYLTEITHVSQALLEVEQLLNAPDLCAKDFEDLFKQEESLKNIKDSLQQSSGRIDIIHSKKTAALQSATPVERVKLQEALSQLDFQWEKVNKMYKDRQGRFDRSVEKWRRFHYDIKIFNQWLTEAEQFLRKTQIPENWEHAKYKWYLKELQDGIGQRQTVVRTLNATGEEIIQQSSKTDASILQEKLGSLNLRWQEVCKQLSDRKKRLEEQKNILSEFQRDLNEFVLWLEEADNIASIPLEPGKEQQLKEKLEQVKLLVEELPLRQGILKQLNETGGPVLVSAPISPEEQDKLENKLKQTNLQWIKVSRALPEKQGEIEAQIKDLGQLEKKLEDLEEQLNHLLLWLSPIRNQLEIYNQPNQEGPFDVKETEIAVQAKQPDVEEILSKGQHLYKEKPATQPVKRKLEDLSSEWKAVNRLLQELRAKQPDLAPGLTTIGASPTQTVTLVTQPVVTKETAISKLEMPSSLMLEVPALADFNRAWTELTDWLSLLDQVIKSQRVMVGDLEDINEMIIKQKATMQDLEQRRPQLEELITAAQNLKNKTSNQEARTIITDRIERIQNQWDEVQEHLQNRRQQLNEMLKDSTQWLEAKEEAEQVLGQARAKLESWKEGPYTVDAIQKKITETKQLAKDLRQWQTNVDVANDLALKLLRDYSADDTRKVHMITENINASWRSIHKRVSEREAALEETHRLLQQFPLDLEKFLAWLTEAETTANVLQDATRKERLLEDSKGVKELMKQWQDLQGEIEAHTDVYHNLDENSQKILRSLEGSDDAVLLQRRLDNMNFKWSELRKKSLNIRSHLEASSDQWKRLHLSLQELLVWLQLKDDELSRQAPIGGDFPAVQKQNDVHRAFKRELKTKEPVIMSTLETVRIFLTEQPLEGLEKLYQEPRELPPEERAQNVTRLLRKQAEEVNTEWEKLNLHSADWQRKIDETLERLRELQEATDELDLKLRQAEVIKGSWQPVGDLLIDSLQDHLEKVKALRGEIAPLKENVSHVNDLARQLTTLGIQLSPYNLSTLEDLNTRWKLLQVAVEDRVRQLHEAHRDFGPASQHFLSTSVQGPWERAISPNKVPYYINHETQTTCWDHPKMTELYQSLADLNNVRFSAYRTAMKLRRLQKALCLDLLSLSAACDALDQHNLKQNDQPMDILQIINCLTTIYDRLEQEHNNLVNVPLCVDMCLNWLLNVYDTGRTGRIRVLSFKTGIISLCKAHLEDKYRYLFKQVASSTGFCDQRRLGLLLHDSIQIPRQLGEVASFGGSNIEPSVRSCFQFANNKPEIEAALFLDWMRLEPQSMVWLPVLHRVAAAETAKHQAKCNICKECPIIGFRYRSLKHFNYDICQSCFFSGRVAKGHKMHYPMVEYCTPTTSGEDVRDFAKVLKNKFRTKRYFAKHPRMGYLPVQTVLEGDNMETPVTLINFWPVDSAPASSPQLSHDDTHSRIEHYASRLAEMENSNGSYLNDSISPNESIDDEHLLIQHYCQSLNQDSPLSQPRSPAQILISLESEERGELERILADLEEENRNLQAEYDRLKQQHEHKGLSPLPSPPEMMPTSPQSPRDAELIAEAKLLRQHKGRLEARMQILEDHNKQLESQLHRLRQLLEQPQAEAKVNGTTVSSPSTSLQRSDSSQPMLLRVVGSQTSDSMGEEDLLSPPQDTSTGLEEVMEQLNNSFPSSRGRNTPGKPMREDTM
# UniProt P07910: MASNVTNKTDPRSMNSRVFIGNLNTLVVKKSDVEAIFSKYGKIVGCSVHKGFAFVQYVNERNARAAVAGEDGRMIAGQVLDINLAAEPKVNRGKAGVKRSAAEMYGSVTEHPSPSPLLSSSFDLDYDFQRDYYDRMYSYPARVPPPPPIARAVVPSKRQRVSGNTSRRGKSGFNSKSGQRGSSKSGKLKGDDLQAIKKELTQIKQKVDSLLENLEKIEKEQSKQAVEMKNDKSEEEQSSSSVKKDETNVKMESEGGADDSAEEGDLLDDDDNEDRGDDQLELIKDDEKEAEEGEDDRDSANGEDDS
# UniProt P06737: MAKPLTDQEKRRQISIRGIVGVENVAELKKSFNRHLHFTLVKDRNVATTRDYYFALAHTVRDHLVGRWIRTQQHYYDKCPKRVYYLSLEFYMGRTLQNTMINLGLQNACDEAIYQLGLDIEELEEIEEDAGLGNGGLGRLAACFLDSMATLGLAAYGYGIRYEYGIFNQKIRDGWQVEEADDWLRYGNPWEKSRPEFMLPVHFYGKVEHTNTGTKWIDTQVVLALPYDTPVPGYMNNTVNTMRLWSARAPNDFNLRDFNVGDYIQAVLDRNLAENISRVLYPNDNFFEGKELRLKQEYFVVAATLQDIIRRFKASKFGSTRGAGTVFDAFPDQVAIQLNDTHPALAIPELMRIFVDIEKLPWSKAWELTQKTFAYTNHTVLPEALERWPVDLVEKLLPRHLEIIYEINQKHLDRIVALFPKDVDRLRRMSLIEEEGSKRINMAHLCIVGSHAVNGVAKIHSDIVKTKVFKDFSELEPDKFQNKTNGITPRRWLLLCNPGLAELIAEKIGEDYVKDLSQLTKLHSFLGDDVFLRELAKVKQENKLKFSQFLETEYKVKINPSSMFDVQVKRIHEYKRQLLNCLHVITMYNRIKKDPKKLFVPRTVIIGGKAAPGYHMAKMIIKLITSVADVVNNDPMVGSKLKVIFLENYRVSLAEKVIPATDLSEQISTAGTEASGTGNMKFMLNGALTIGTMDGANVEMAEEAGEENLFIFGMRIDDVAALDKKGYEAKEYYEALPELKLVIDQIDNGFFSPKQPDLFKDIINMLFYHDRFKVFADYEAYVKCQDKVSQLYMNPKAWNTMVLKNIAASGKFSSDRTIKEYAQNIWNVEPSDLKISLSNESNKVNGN
# UniProt P13224: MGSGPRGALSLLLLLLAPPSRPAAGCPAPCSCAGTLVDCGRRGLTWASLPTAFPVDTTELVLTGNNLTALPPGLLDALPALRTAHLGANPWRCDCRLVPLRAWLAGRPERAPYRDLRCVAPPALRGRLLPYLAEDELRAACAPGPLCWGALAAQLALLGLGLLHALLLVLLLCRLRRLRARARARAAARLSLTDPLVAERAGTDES
# UniProt P10124: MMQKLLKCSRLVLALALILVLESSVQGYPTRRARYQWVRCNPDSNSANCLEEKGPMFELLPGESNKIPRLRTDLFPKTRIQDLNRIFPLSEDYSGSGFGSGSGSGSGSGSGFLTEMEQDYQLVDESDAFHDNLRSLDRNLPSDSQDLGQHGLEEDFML
# UniProt P09493, whole entry: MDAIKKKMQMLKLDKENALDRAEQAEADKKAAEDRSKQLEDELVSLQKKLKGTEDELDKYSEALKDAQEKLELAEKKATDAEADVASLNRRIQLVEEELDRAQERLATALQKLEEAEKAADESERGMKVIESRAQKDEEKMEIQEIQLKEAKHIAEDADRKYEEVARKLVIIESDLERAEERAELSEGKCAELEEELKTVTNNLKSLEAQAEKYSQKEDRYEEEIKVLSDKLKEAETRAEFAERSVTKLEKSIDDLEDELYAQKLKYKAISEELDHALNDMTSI
# UniProt P04181: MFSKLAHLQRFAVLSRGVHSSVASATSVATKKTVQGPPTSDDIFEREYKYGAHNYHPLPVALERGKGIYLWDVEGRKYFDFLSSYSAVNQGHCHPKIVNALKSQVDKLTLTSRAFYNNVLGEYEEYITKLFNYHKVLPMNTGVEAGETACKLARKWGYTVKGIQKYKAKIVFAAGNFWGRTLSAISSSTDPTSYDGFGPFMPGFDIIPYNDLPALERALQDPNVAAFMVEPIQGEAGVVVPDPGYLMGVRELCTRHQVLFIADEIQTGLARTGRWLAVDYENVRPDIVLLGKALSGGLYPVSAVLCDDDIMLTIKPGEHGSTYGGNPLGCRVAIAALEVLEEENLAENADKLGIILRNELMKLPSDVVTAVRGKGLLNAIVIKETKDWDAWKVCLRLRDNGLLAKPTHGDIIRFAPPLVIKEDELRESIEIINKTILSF
# UniProt P10412, whole entry: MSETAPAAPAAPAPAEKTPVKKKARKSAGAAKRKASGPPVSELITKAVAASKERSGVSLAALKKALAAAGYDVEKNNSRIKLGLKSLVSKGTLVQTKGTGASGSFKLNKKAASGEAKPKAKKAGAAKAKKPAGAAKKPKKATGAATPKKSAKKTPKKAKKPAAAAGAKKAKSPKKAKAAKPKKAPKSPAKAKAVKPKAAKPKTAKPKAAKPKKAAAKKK
# Some of the results follow. Most values lie at the level of the controls, where differences are scatter.
# Compound: CN[C@@H]1C[C@H]2O[C@@](C)([C@@H]1OC)n1c3ccccc3c3c4c(c5c6ccccc6n2c5c31)C(=O)NC4 [staurosporine]
# Assay: log2 fold change of tryptic peptide abundance, ligand vs vehicle (limited proteolysis) (log2 ratio); higher = more trypsin-susceptible (destabilized)
# Details: ligand concentration: 20 uM; sample: K562 cleared lysate; digestion: 4 min, 22 C (HT-PELSA RT4min, Orbitrap Astral)
row,Target,log2 fold change
1,"ASS1 (peptide sequence: MPEFYNR, peptide start residue: 147) (UniProt P00966)",0.231
2,"DMD (peptide sequence: LGLLLHDSIQIPR, peptide start residue: 3234) (UniProt P11532)",0.709
3,"HNRNPC (peptide sequence: MIAGQVLDINLAAEPK, peptide start residue: 74) (UniProt P07910)",-0.171
4,"PYGL (peptide sequence: HLHFTLVK, peptide start residue: 35) (UniProt P06737)",0.273
5,"GP1BB (peptide sequence: LSLTDPLVAER, peptide start residue: 190) (UniProt P13224)",-0.13
6,"SRGN (peptide sequence: GPMFELLPGESNKIPR, peptide start residue: 54) (UniProt P10124)",-0.405
7,"TPM1 (peptide sequence: HIAEDADRK, peptide start residue: 153) (UniProt P09493)",-0.242
8,"OAT (peptide sequence: HQVLFIADEIQTGLAR, peptide start residue: 256) (UniProt P04181)",-0.476
9,"HIST1H1E (peptide sequence: KPAAAAGAKK, peptide start residue: 160) (UniProt P10412)",0.986
10,"TYMS (peptide sequence: DFLDSLGFSTR, peptide start residue: 116) (UniProt P04818)",-0.131

# As entered above:
# GP1BB (peptide sequence: LSLTDPLVAER, peptide start residue: 190) (UniProt P13224) – log2 fold change: -0.13
# TYMS (peptide sequence: DFLDSLGFSTR, peptide start residue: 116) (UniProt P04818) – log2 fold change: -0.131
